Assay [1] has as its target T1, mCherry-UVR8-GFP (wild-type UV … LOCUS 8, from the pFRET-NcCg-DEST vector) (Arabidopsis thaliana), Q9FN03.
T1 chain: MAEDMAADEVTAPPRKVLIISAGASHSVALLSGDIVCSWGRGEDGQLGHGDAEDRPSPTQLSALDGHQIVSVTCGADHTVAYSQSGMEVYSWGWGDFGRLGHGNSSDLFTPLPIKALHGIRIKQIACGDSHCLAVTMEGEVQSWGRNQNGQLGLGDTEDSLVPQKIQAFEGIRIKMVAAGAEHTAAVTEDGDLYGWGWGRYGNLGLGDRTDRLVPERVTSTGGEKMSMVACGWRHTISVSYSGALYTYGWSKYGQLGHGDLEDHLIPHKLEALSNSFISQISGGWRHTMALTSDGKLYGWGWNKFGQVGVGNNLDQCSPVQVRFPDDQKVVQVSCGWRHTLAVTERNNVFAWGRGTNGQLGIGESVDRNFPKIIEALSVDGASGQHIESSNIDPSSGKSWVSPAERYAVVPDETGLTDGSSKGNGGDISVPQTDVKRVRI
Kind of assay: FRET or BRET; acceptor photobleaching (50 s, 100% 552 nm), percent increase of GFP fluorescence, tobacco leaf cells; mCherry-UVR8-GFP chains (pFRET-NcCg-DEST), intra- and intermolecular FRET both contribute; leaves with or without 3 umol m^-2 s^-1 broadband UV-B for 1 hour. The following applies: remark: other sources report otherwise. (In general: Bioluminescence resonance energy transfer reports proximity on the nanometre scale.)

Assay [2] has as its target T1, mCherry-UVR8-GFP (wild-type UV … LOCUS …). Nature of the assay: FRET or BRET; sensitised emission, ratio mCherry (488)/GFP (488), confocal microscopy of tobacco leaf cells; one chain with mCherry at the N- and GFP at the C-terminus (pFRET-NcCg-DEST), so intra- and intermolecular FRET both contribute; leaves with or without 3 umol m^-2 s^-1 broadband UV-B for 1 hour. The note with it: remark: other sources report otherwise.

The target in assay [3] is T2, mCherry-UVR8-mCherry/GFP-UVR8-GFP (wild-type UVR8, two differently tagged copies from the pFRET-2in1-DEST vector) (Arabidopsis thaliana), Q9FN03.
T2 chain: T1 chain
Kind of assay: FRET or BRET; sensitised emission, ratio mCherry (488)/GFP (488), tobacco leaf cells; GFP-UVR8-GFP and mCherry-UVR8-mCherry co-expressed 1:1 (pFRET-2in1-DEST), only intermolecular FRET; leaves with or without 3 umol m^-2 s^-1 broadband UV-B for 1 hour. The note with it: remark: other sources report otherwise.

In assay [4] the target is T2, mCherry-UVR8-mCherry/GFP-UVR8-GFP …. Kind of assay: FRET or BRET; acceptor photobleaching (50 s, 100% 552 nm), percent increase of GFP fluorescence, tobacco leaf cells; GFP-UVR8-GFP and mCherry-UVR8-mCherry co-expressed 1:1 (pFRET-2in1-DEST), only intermolecular FRET; leaves with or without 3 umol m^-2 s^-1 broadband UV-B for 1 hour. The note with it: remark: other sources report otherwise.

Assay [5] deals with mCherry-UVR8^W285F-mCherry/GFP-UVR8^W285F-GFP (two differently tagged copies from the pFRET-2in1-DEST vector) (Arabidopsis thaliana) (UniProt Q9FN03). Nature of the assay: FRET or BRET; sensitised emission, ratio mCherry (488)/GFP (488), tobacco leaf cells; GFP-UVR8-GFP and mCherry-UVR8-mCherry co-expressed 1:1 (pFRET-2in1-DEST), only intermolecular FRET; leaves with or without 3 umol m^-2 s^-1 broadband UV-B for 1 hour.

The target is the same in assay [6]. Nature of the assay: FRET or BRET; acceptor photobleaching (50 s, 100% 552 nm), percent increase of GFP fluorescence, tobacco leaf cells; GFP-UVR8-GFP and mCherry-UVR8-mCherry co-expressed 1:1 (pFRET-2in1-DEST), only intermolecular FRET; leaves with or without 3 umol m^-2 s^-1 broadband UV-B for 1 hour.
Assay [7] concerns the target mCherry-UVR8^W285F-GFP (from the pFRET-NcCg-DEST vector) (Arabidopsis thaliana) (UniProt Q9FN03). Nature of the assay: FRET or BRET; acceptor photobleaching (50 s, 100% 552 nm), percent increase of GFP fluorescence, tobacco leaf cells; mCherry-UVR8-GFP chains (pFRET-NcCg-DEST), intra- and intermolecular FRET both contribute; leaves with or without 3 umol m^-2 s^-1 broadband UV-B for 1 hour.

Assay [8] shares this target. Nature of the assay: FRET or BRET; sensitised emission, ratio mCherry (488)/GFP (488), confocal microscopy of tobacco leaf cells; one chain with mCherry at the N- and GFP at the C-terminus (pFRET-NcCg-DEST), so intra- and intermolecular FRET both contribute; leaves with or without 3 umol m^-2 s^-1 broadband UV-B for 1 hour.

Numbering of substitutions follows the chain as printed. Names and notes keep the numbering of the source. Results are given in words; binding and its absence hold for the method and conditions named. Binding seen in cells or lysates may run through a third protein. Some entries that bind do so weakly or less than the wild type. Where a sequence is shown, tags or fusion partners need not be part of it.

B1: mCherry-UVR8-GFP (wild-type UV … LOCUS 8, from the pFRET-NcCg-DEST vector), Q9FN03 1-440 (protein)
chain: T1 chain
With B1, the binding result in assay [1] and in assay [2] was “binds” in each case.

B2: mCherry-UVR8-mCherry/GFP-UVR8-GFP (wild-type UVR8, two differently tagged copies from the pFRET-2in1-DEST vector), Q9FN03 1-440 (protein)
chain: T1 chain
B2: the binding entry in assay [3] and in assay [4] was “binds” in each case.

B3: mCherry-UVR8^W285F-mCherry/GFP-UVR8^W285F-GFP (two differently tagged copies from the pFRET-2in1-DEST vector) (protein, UniProt Q9FN03 1-440)
chain: T1 chain with W285F
Take B3: the binding entry in assay [5] and in assay [6] was “binds” throughout.

B4: mCherry-UVR8^W285F-GFP (from the pFRET-NcCg-DEST vector) (protein, UniProt Q9FN03 1-440)
chain: T1 chain with W285F
With B4, the binding result in assay [7] and in assay [8] was “binds” throughout.

These data come from publication PMC6374739.
